Source: the supplement of paper PMC3334620
The full ranking holds about 33,000 sequences; the median of “E-score (-0.5 to 0.5)” is about -0.0014, and the highest 2% start at about 0.25. The list shows a part of the results.

Target: T1, Cad1 (UniProt P24813)
T1 sequence: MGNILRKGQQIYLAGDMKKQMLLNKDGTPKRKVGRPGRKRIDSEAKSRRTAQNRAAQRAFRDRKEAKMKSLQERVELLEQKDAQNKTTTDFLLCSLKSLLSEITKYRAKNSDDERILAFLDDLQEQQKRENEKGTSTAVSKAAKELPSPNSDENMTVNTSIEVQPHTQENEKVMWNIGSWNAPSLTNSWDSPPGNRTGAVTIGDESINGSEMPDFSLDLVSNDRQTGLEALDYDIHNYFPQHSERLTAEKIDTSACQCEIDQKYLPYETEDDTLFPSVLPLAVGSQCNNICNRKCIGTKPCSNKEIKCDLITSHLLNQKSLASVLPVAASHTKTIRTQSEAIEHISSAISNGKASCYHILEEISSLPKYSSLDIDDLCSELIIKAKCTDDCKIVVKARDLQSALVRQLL
Assay: PBM E-score (8-mer binding enrichment) (E-score (-0.5 to 0.5)); higher = stronger / more preferred TF binding
Conditions: protein concentration: 100 nM; construct: GST-full length
Description: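 Universal 'all 10-mer' protein binding microarrays (Agilent AMADID 015681) probed with GST-tagged S. cerevisiae TFs (full-length or DBD) made by in vitro transcription/translation (PURExpress), about 100-200 nM. Bound TF was detected with fluorescent anti-GST. Each ungapped 8-mer (which stands for itself and its reverse complement) is scored by the PBM enrichment score (E-score), a modified Wilcoxon-Mann-Whitney statistic from -0.5 to +0.5, computed with the Universal PBM Analysis Suite. Scale: above 0.35 generally sequence-specific binding.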

| Sequence | PBM E-score |
| --- | --- |
| ATAGCAGG | -0.0469 |
| TCACAACA | 0.224 |
| GAATTTAA | 0.0361 |
| GTCGCCAA | 0.0725 |
| GATATTGA | 0.0604 |
| TCGAGTCA | -0.11 |
| TAGAAACA | -0.131 |
| AAGAACTA | 0.0282 |
| AGTGGCTC | -0.122 |
| CATCTGTA | -0.0246 |
| AGGTACAG | -0.122 |
| CACCAACA | 0.0119 |
| CTACGCAG | 0.0032 |
| CGTCTGGC | 0.0651 |
| ATACACAA | 0.11 |
| AAACGGGG | 0.133 |
| AGGCTCCG | 0.111 |
| CCGGCAGC | -0.0715 |
| ATCGCAGC | 0.0906 |
| GCTGTAAA | -0.115 |
| AGCCGCGG | 0.0567 |
| AGGACGGC | -0.136 |
| ATTCGACA | -0.086 |
| GCTAGGCA | -0.187 |
| ACACCTTC | 0.104 |

A second format for part of the listing above:
Sequence,PBM E-score
TCACAACA,0.224
GAATTTAA,0.0361
CACCAACA,0.0119
CGTCTGGC,0.0651

Taken from above:
Entry for GCTGTAAA under PBM E-score: -0.115
Entry for AGGCTCCG under PBM E-score: 0.111
Entry for TAGAAACA under PBM E-score: -0.131
Entry for AGGACGGC under PBM E-score: -0.136

More results follow.

| Sequence | PBM E-score |
| --- | --- |
| GGGGGAGA | -0.406 |
| CCAGCTGA | 0.155 |
| CATAAAAC | 0.0149 |
| AGGAAGGA | -0.346 |
| AACCCTTA | 0.166 |
| TACAGCAA | 0.0251 |
| AACTGAAC | -0.157 |
| CGGGTTCC | 0.0289 |
| CTACCACA | -0.185 |
| CATGGCGA | 0.114 |
| ATGTTGGG | -0.138 |
| ATATGACA | 0.198 |
| CCGCCTGC | -0.173 |
| CCACTCAA | 0.078 |
| GGTTGTCA | -0.0032 |
| AGGACCTC | -0.253 |
| AAGACTCT | 0.0337 |
| TGCATAAA | 0.131 |
| CCGACTTC | -0.22 |
| GCATTTGA | 0.162 |
| AGTTCCGA | 0.0228 |
| ACTTCGTC | 0.0105 |
| ACGGGGTA | -0.143 |
| CGCGGCAC | -0.0774 |
| AAAATTCC | 0.171 |

| Sequence | PBM E-score |
| --- | --- |
| CACGAAGC | -0.00366 |
| ACTTGCCT | -0.186 |
| GTTTCCCA | 0.0983 |
| GATGCGAC | -0.0578 |
| ATGACAAC | 0.183 |
| AAGCGACT | -0.0195 |
| GCTCAACA | 0.0273 |
| GAAACGTA | 0.0881 |
| CCGAGGAC | 0.0745 |
| ACAGTCGT | -0.0216 |
| GAACAGCA | 0.0268 |
| GTGGCGAA | -0.0438 |
| AGCAGCGA | 0.127 |
| AACGTTGC | 0.128 |
| ACGACATA | -0.0422 |
| CTTAATCA | 0.141 |
| GTAAGGGA | -0.0748 |
| AAACGGGT | 0.0173 |
| GCAAACCC | -0.137 |
| CGCGAGTC | 0.0524 |
| CGAGTGTA | -0.0885 |
| ACACGGAT | 0.201 |
| CCTATAGG | -0.123 |
| CACCGCCC | -0.0109 |
| CTTGCTGA | 0.0349 |

| Sequence | PBM E-score |
| --- | --- |
| ACAATACT | 0.166 |
| AAGCTTCA | -0.0382 |
| CTAGGACA | 0.129 |
| CGATGACA | 0.201 |
| CTGGCGGA | -0.0596 |
| GAAACATA | 0.0504 |
| AGGATGTC | -0.0351 |
| AGTTCAGA | -0.104 |
| AGGACCTG | -0.175 |
| CGCTCACA | 0.173 |
| ATCAGCTA | 0.0837 |
| CTAGCCCA | -0.145 |
| CCATGAAG | -0.0859 |
| ATAGACGA | 0.063 |
| AAGTGAAA | 0.152 |
| CTACAACA | -0.0148 |
| ACTATTGC | 0.00174 |
| GCGCACTA | 0.115 |
| GCGCGCCC | -0.0295 |
| GAGGGAAC | -0.0626 |
| GAGGTAAA | -0.00777 |
| ACGGTATA | 0.0261 |
| GGAGAGCC | -0.284 |
| AACGTGTC | 0.0353 |
| TCAGGAGA | 0.0395 |

| Sequence | PBM E-score |
| --- | --- |
| CCGTAACG | -0.0334 |
| GGAACAAC | 0.176 |
| CCGCTCAC | -0.0771 |
| ATCCTGCC | -0.194 |
| ACGTTGGG | 0.0171 |
| GCTTACAC | 0.23 |
| ACTTAAGA | -0.00148 |
| CCGTTTGA | -0.0814 |
| CCGTCTGA | -0.0463 |
| GTGCGGCA | 0.083 |
| ACAATAGC | -0.111 |
| ATCGAGTG | 0.0622 |
| ACTTGCCG | -0.174 |
| GGAGCACC | -0.0566 |
| AAGCTGAA | 0.0834 |
| ATCAGGAC | 0.114 |
| AGGTTTCG | -0.0287 |
| AGTATGGC | -0.021 |
| CTGACAAC | 0.0707 |
| AAGGTGCC | -0.061 |
| ATCGCCGC | 0.13 |
| GTCCGCGA | 0.0898 |
| CTGCAGCC | 0.0208 |
| CGACCACG | 0.0831 |
| GGCCTCCA | 0.00254 |

| Sequence | PBM E-score |
| --- | --- |
| GTTGATAA | 0.188 |
| GAGAATGA | 0.0166 |
| ACGGCTTC | -0.00745 |
| AATGCGCC | -0.00918 |
| CCATTTTA | 0.0965 |
| GGAAGGCA | 0.0286 |
| CGTGGCCA | -0.176 |
| ATAGTAGC | 0.143 |
| AACTTTCT | 0.00602 |
| ATTTCTCC | -0.0308 |
| GGACGGCA | -0.0773 |
| CGGATCGC | 0.189 |
| GTGTGACA | 0.0138 |
| CGGGTTGC | 0.0476 |
| ACCGTTTC | -0.0432 |
| CTACCGTA | -0.105 |
| AAGTCTGT | 0.107 |
| GACCGCCC | -0.219 |
| AAATAAAC | 0.135 |
| ATACGAAG | 0.0441 |
| CCGACAGC | -0.21 |
| AAGACGAA | 0.0967 |
| ATCTCTCC | -0.134 |
| TAATGCAA | -0.0846 |
| CAAATATG | 0.135 |

| Sequence | PBM E-score |
| --- | --- |
| CTAACCAG | 0.0758 |
| CCCTTTAG | -0.266 |
| CTACTAGA | -0.0699 |
| CCGTAGGA | -0.14 |
| CAGCGCTG | 0.263 |
| GCCAACGC | 0.188 |
| GATCAATC | -0.0553 |
| AAACAGGA | 0.0149 |
| ATACAAAT | 0.131 |
| ACTGTTGG | -0.0581 |
| ATTTCTTA | 0.133 |
| GCCCCCGA | -0.382 |
| AGACGAAT | -0.0535 |
| CGATGAAG | -0.0787 |
| AAGCATCG | 0.0399 |
| ACCGATCT | -0.198 |
| ATCTTCCG | -0.0426 |
| TAATAGCA | 0.0297 |
| ATTTAGTG | 0.176 |
| CCGCAATC | 0.0652 |
| AGAGTCTC | -0.0766 |
| CCTTAACA | -0.0661 |

A stretch taken from the entries so far:

| Sequence | PBM E-score |
| --- | --- |
| GCCAACGC | 0.188 |
| GATCAATC | -0.0553 |
| AAACAGGA | 0.0149 |
| ATACAAAT | 0.131 |
| ACTGTTGG | -0.0581 |
